Binding data for 3 substances are collected here from article PMC12134225.

Amino acid sequences for entries named in this document (tags omitted). A change or cut given only in a name is not applied to a line headed by its entry.
UniProt Q96P20: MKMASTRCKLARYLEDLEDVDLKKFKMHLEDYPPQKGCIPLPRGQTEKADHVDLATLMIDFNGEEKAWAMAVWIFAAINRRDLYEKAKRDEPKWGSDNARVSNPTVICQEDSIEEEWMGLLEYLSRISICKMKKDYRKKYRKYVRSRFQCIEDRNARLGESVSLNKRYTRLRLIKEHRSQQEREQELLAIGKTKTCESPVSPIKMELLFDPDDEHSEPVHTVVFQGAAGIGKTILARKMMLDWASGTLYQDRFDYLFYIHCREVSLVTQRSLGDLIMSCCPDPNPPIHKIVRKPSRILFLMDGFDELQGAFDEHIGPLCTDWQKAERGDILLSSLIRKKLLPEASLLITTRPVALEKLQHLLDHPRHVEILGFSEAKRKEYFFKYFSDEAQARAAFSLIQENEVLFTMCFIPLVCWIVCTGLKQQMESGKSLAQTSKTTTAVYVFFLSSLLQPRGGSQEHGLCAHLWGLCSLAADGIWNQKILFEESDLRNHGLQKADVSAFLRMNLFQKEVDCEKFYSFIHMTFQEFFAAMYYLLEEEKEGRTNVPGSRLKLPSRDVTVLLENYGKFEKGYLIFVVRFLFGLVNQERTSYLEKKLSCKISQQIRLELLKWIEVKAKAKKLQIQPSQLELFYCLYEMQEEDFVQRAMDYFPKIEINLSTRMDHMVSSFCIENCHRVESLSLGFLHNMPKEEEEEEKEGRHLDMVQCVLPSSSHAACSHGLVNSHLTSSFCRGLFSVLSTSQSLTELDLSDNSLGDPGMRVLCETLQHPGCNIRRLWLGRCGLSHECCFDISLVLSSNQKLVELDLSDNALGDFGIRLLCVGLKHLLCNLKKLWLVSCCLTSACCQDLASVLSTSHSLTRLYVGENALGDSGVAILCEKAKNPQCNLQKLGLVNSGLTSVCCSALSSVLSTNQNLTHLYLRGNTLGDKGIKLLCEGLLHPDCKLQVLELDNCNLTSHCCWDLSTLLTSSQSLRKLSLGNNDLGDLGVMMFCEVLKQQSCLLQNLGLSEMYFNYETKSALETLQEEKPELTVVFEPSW

No constants are given. Whether binding was seen depends on the method and setting. Binding seen in cells or lysates may run through a third protein. Some binding calls cover weakened binding; strength is not graded here.

In this assay the target is T1, ZDHHC7 (UniProt Q9NXF8).
T1 sequence: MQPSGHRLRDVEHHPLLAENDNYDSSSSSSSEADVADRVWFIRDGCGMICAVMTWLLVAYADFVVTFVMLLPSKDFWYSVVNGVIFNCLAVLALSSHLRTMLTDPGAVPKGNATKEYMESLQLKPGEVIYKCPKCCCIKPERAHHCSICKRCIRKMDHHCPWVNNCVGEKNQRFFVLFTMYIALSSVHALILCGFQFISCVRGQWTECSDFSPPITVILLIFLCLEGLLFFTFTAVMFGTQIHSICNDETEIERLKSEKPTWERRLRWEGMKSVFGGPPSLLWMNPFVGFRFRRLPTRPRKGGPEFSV
Nature of the assay: co-IP; cotransfected HEK293T cells, 24 h; lysis buffer with 0.5% Triton X-100, 20 mM HEPES pH 7.4, 150 mM NaCl; anti-GFP or anti-Flag beads overnight at 4 °C; three PBS washes; immunoblot. On the technique in general: In western blotting, separated proteins are transferred to a membrane and probed.
“GFP-C261 (GFP fused to hNLRP3 residues 254-268) (from UniProt Q96P20 254-268) (domain or fragment)”: the binding entry is listed as “binds”.

Consider “GFP-S261 (GFP fused to hNLRP3 residues 254-268 with C261S) (from UniProt Q96P20 254-268) (domain or fragment)”, for which the binding entry is reported as “no binding”.

For “NLRP3 (overexpressed) (from UniProt Q96P20 1-1036)”, the binding entry was “binds”.
